Data: the supplement of paper PMC6078165
± gives the standard deviation of the averaged measurements. Values are relative to the signal before dosing, not to a vehicle control; the signal also falls without drug.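 Labels refer to human fibroblasts, largely primary: uterine (C12385, HUF), lung (H6013), bone (Hs27A), adrenal (HADF), skin (WS1), plus mammary HMF and breast cancer-associated Hs343T. Cancer lines are basal-like or mesenchymal-like triple-negative breast cancer. The paper counts as hits responses shifting over 3x the replicate standard deviation. The tissue of the other fibroblasts is not given here.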

System: MDAMB231
Assay: relative JC-1 red fluorescence (viability) vs pre-drug, coculture with fibroblast (fraction); higher = more viable cancer cells
Procedure: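 JC-1 labelled TNBC cells cocultured 1:1 (1,500 cells each) with CellTrace Violet stained primary or stromal fibroblasts in 384-well plates in FluoroBrite medium, treated with one of 42 anticancer drugs at 0.1, 1, 10 or 100 uM. JC-1 red fluorescence (mitochondrial integrity in cancer cells only) was read by plate reader every 8 h for 72 h. Values are normalised to each well's pre-drug value. The stock of one drug was tenfold lower, so its dose labels may be too high.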

Nc1ncn([C@@H]2O[C@H](CO)[C@@H](O)[C@H]2O)c(=O)n1 [Azacitidine]
relative JC-1 red fluorescence
Settings	8 h	16 h	24 h	32 h	40 h	48 h	56 h	64 h	72 h
10 µM, coculture fibroblast: C12385	0.736 ± 0.009	0.748 ± 0.0024	0.645 ± 0.05	0.672 ± 0.014	0.624 ± 0.016	0.59 ± 0.034	0.548 ± 0.041	0.538 ± 0.051	0.516 ± 0.053
10 µM, coculture fibroblast: H6013	0.9156 ± 0.0034	0.845 ± 0.011	0.7965 ± 0.0014	0.7589 ± 0.0042	0.727 ± 0.013	0.697 ± 0.0084	0.7028 ± 0.0051	0.6786 ± 0.0025	0.6445 ± 0.0047
10 µM, coculture fibroblast: H6019	0.799 ± 0.019	0.771 ± 0.018	0.735 ± 0.025	0.732 ± 0.024	0.708 ± 0.023	0.678 ± 0.032	0.649 ± 0.033	0.631 ± 0.037	0.6 ± 0.036
10 µM, coculture fibroblast: H6076	0.848 ± 0.043	0.773 ± 0.046	0.752 ± 0.031	0.742 ± 0.025	0.726 ± 0.0092	0.703 ± 0.011	0.69004 ± 0.00024	0.681 ± 0.0086	0.6922 ± 0.0046
10 µM, coculture fibroblast: H6231	0.907 ± 0.047	0.83 ± 0.044	0.803 ± 0.033	0.755 ± 0.024	0.718 ± 0.024	0.68 ± 0.024	0.634 ± 0.026	0.602 ± 0.017	0.579 ± 0.015
10 µM, coculture fibroblast: HADF	0.875 ± 0.0017	0.8514 ± 0.0081	0.827 ± 0.01	0.811 ± 0.019	0.773 ± 0.017	0.718 ± 0.019	0.708 ± 0.015	0.692 ± 0.011	0.652 ± 0.019
10 µM, coculture fibroblast: HCFa	0.876 ± 0.029	0.836 ± 0.021	0.821 ± 0.018	0.806 ± 0.013	0.7734 ± 0.0059	0.719 ± 0.011	0.718 ± 0.025	0.685 ± 0.035	0.644 ± 0.034
10 µM, coculture fibroblast: HCPF	0.889 ± 0.019	0.826 ± 0.022	0.786 ± 0.02	0.767 ± 0.012	0.732 ± 0.015	0.699 ± 0.015	0.668 ± 0.0069	0.6309 ± 0.0037	0.604 ± 0.0048
10 µM, coculture fibroblast: HHSteC	0.907 ± 0.028	0.883 ± 0.02	0.839 ± 0.031	0.803 ± 0.034	0.775 ± 0.016	0.749 ± 0.017	0.732 ± 0.026	0.7009 ± 0.0043	0.6711 ± 0.0039
10 µM, coculture fibroblast: HMF	0.87 ± 0.014	0.84 ± 0.025	0.833 ± 0.031	0.821 ± 0.035	0.8 ± 0.021	0.768 ± 0.025	0.737 ± 0.011	0.727 ± 0.011	0.7118 ± 0.002
10 µM, coculture fibroblast: HPFa	0.921 ± 0.012	0.914 ± 0.015	0.8744 ± 0.0078	0.8398 ± 0.0032	0.8412 ± 0.0054	0.811 ± 0.015	0.77 ± 0.01	0.747 ± 0.0085	0.716 ± 0.011
10 µM, coculture fibroblast: HUF	0.83 ± 0.038	0.755 ± 0.035	0.754 ± 0.026	0.677 ± 0.033	0.622 ± 0.037	0.596 ± 0.034	0.545 ± 0.038	0.542 ± 0.04	0.519 ± 0.046
10 µM, coculture fibroblast: Hs5	0.9148 ± 0.0059	0.8625 ± 0.0063	0.841 ± 0.014	0.803 ± 0.017	0.769 ± 0.018	0.729 ± 0.026	0.697 ± 0.038	0.662 ± 0.033	0.645 ± 0.044
10 µM, coculture fibroblast: Hs27A	0.8862 ± 0.00034	0.8469 ± 0.0021	0.8321 ± 0.0041	0.8219 ± 0.0026	0.7714 ± 0.0056	0.705 ± 0.029	0.721 ± 0.022	0.697 ± 0.032	0.662 ± 0.033
10 µM, coculture fibroblast: Hs343T	0.833 ± 0.044	0.737 ± 0.034	0.7017 ± 0.0036	0.6775 ± 0.0014	0.6415 ± 0.0028	0.6085 ± 0.0037	0.577 ± 0.014	0.567 ± 0.019	0.539 ± 0.024
10 µM, coculture fibroblast: WS1	0.733 ± 0.02	0.7158 ± 0.00099	0.615 ± 0.074	0.636 ± 0.029	0.619 ± 0.048	0.596 ± 0.065	0.554 ± 0.067	0.535 ± 0.075	0.501 ± 0.078
100 µM, coculture fibroblast: C12385	0.7737 ± 0.0029	0.734 ± 0.017	0.666 ± 0.025	0.6682 ± 0.0038	0.624 ± 0.0087	0.59 ± 0.0054	0.559 ± 0.0069	0.558 ± 0.02	0.53 ± 0.026
100 µM, coculture fibroblast: H6013	0.915 ± 0.01	0.785 ± 0.042	0.701 ± 0.02	0.635 ± 0.027	0.589 ± 0.012	0.5932 ± 0.0019	0.5672 ± 0.004	0.556 ± 0.0065	0.527 ± 0.021
100 µM, coculture fibroblast: H6019	0.767 ± 0.019	0.637 ± 0.039	0.621 ± 0.049	0.584 ± 0.045	0.577 ± 0.058	0.596 ± 0.066	0.601 ± 0.079	0.648 ± 0.088	0.66 ± 0.1
100 µM, coculture fibroblast: H6076	0.872 ± 0.046	0.788 ± 0.024	0.715 ± 0.009	0.69 ± 0.011	0.6532 ± 0.0031	0.634 ± 0.011	0.6228 ± 0.0041	0.6256 ± 0.0029	0.631 ± 0.016
100 µM, coculture fibroblast: H6231	0.934 ± 0.032	0.87 ± 0.033	0.827 ± 0.035	0.802 ± 0.03	0.766 ± 0.028	0.738 ± 0.04	0.681 ± 0.014	0.657 ± 0.021	0.635 ± 0.021
100 µM, coculture fibroblast: HADF	0.89239 ± 0.00061	0.8468 ± 0.0036	0.8259 ± 0.0013	0.8141 ± 0.0059	0.79029 ± 0.00028	0.736 ± 0.0083	0.7211 ± 0.0045	0.7061 ± 0.0047	0.6622 ± 0.002
100 µM, coculture fibroblast: HCFa	0.894 ± 0.02	0.825 ± 0.0085	0.791 ± 0.037	0.781 ± 0.048	0.753 ± 0.058	0.712 ± 0.05	0.694 ± 0.034	0.668 ± 0.038	0.617 ± 0.036
100 µM, coculture fibroblast: HCPF	0.8646 ± 0.0033	0.795 ± 0.015	0.75 ± 0.018	0.755 ± 0.014	0.7149 ± 0.0022	0.6864 ± 0.0066	0.651 ± 0.0075	0.625 ± 0.022	0.602 ± 0.027
100 µM, coculture fibroblast: HHSteC	0.9029 ± 0.0016	0.8835 ± 0.0014	0.8443 ± 0.0058	0.82 ± 0.0087	0.792 ± 0.011	0.761 ± 0.0055	0.7197 ± 0.0012	0.7 ± 0.0077	0.6549 ± 0.0043
100 µM, coculture fibroblast: HMF	0.888 ± 0.028	0.824 ± 0.017	0.79206 ± 0.00079	0.777 ± 0.0081	0.748 ± 0.017	0.719 ± 0.021	0.669 ± 0.027	0.647 ± 0.03	0.621 ± 0.034
100 µM, coculture fibroblast: HPFa	0.9395 ± 0.0012	0.893 ± 0.01	0.841 ± 0.011	0.802 ± 0.021	0.782 ± 0.015	0.749 ± 0.018	0.7 ± 0.014	0.678 ± 0.017	0.6358 ± 0.0057
100 µM, coculture fibroblast: HUF	0.8377 ± 0.0072	0.7802 ± 0.004	0.798 ± 0.027	0.741 ± 0.034	0.696 ± 0.033	0.683 ± 0.048	0.636 ± 0.037	0.627 ± 0.042	0.609 ± 0.043
100 µM, coculture fibroblast: Hs5	0.891 ± 0.015	0.844 ± 0.037	0.832 ± 0.063	0.82 ± 0.074	0.795 ± 0.071	0.763 ± 0.086	0.742 ± 0.09	0.723 ± 0.093	0.701 ± 0.085
100 µM, coculture fibroblast: Hs27A	0.9069 ± 0.0087	0.86 ± 0.027	0.817 ± 0.019	0.8015 ± 0.008	0.783 ± 0.015	0.7276 ± 0.0049	0.75 ± 0.014	0.737 ± 0.022	0.692 ± 0.02
100 µM, coculture fibroblast: Hs343T	0.902 ± 0.057	0.851 ± 0.035	0.84 ± 0.014	0.8448 ± 0.0037	0.826 ± 0.021	0.798 ± 0.023	0.764 ± 0.034	0.728 ± 0.039	0.695 ± 0.052
100 µM, coculture fibroblast: WS1	0.7609 ± 0.0049	0.7381 ± 0.0036	0.65 ± 0.013	0.6765 ± 0.00043	0.642 ± 0.023	0.614 ± 0.021	0.574 ± 0.019	0.551 ± 0.011	0.521 ± 0.014
